These are yes or no findings as the source states them, for the method shown. Binding can be weak; no strength is given. Where a sequence is shown, tags or fusion partners need not be part of it. For some of these results: In cells and extracts the contact can be indirect.
Legend:
[1] = biological target: Irgb10 (Yeast Two-Hybrid fusion) (mouse); assay: two-hybrid; S. cerevisiae PJ69-4α; Gal4 AD and BD fusions; colony growth on SD/-Leu/-Trp/-His with 0.5 mM 3-AT, 30°C, 5 to 14 days
[2] = biological target: Irgb10 (β-lactamase fragment fusion for PCA) (mouse); assay: split reporter; Protein-fragment complementation assay (PCA): proteins fused to BlaN or BlaC fragments of TEM-1 β-lactamase, co-transfected in HEK293T cells, lysed 24 h later; nitrocefin hydrolysis in the supernatant read as absorbance at 495 nm

Row | Binder | binding [1] | binding [2]
1 | GBP6 (Yeast Two-Hybrid fusion) (protein, UniProt A0A0G2JDV3 1-611) MTQPQMAPICLVENHNEQLSVNQEAIEILDKISQPVVVVAIVGLYRTGKSYLMNCLAGQNHGFPLGSTVQSQTKGIWMWCMPHPTKPEHTLVLLDTEGLGDVEKGDPKNDLWIFALSVLLSSTFIYNSMITINHQALEQLQYVTELTELIRAKSSPNPAGIKNSTEFVSFFPDFVWTVRDFMLELKLNGEDITSDDYLENALKLIPGDKPRMQASNSCRECIRLFFPNRKCFVFDRPTHDKELLQKLDSITEDQLDPKFQEVTKAFVSYIFTYAKIKTLKEGIKVTGNRLGILVTTYVNAINSGAVPCLDDAVTTLAQRENSVAVQKAADHYSEQMAQRLRLPTETLQELLDVHAACEKEAMAVFMEHSFKDENQQFLKKLVELIGENKELFLSKNEEASNKYCQEELDRLSKDFMENISTFFVPCGHKLYMDKREKIEHDYWQVPRKGVKASEVFQSFLQSQAFIESSILQADTALTAGEKAIAEERAQKVAAEKEQELLRQKQKEQQEYMEAQEKSHKENLEQLRRKLEQEREQDIKDHDMMLKKLMKDQKAFLEEGFKKKAEEMNKEIQQLRDVIKDKKRNTDRIKEALLNGFSTVLFHYLVRYLKHL | binds | –
2 | GBP5 (Yeast Two-Hybrid fusion) (protein, UniProt Q8CFB4 1-590) MAPEIHMPEPLCLIGSTEGHLVTNQEALKILSAITQPVVVVAIVGLYRTGKSYLMNKLAGKEKGFSVGSTVQSHTKGIWMWCVPHPQKPDHTLVLLDTEGLGDVEKDDKKNDTQIFALAILLSSTFVYNTMNKIDQGAIDLLHNVTELTDLLRTRNSSDSNQTEGEGPADMSFFPDLVWTLRDFFLDLQANGHAITSDEYLENSLKLKQGSDERTQTFNLPRLCIQKFFPVKKCFVFDAPALGSKLSQLPTLSNEELNSDFVQDLSEFCSHIFTQSKTKTLPGGIQVNGPRLESLVLTYVDAINSGALPSIENTVVTLARRENSAAVQKAIGHYDQLMSEKVQLPTETLQELLDLHRTCEREAIEIFRKHSFKDEGEFFQKELESLLSAKQDEICKKNADASAALCSTLLGSIFKPLEQEVAQEFYHKPGGHKLFLQRMEQLKANYRQQPGKGTQAEEVLQTYLNAKETVSRTILQTDQVLTDKEIQSKAEQERAEAARLEAQRLEAIRIQEEQRKAEMERQHQEQLRQIALEKARVAQEQQWILKQRAQEEADRIKAEQEAQLRALQQQLQHMREMNHHRRHHHDCVIS | binds | –
3 | GBP6 (β-lactamase fragment fusion for PCA) (protein, UniProt A0A0G2JDV3 1-611) MTQPQMAPICLVENHNEQLSVNQEAIEILDKISQPVVVVAIVGLYRTGKSYLMNCLAGQNHGFPLGSTVQSQTKGIWMWCMPHPTKPEHTLVLLDTEGLGDVEKGDPKNDLWIFALSVLLSSTFIYNSMITINHQALEQLQYVTELTELIRAKSSPNPAGIKNSTEFVSFFPDFVWTVRDFMLELKLNGEDITSDDYLENALKLIPGDKPRMQASNSCRECIRLFFPNRKCFVFDRPTHDKELLQKLDSITEDQLDPKFQEVTKAFVSYIFTYAKIKTLKEGIKVTGNRLGILVTTYVNAINSGAVPCLDDAVTTLAQRENSVAVQKAADHYSEQMAQRLRLPTETLQELLDVHAACEKEAMAVFMEHSFKDENQQFLKKLVELIGENKELFLSKNEEASNKYCQEELDRLSKDFMENISTFFVPCGHKLYMDKREKIEHDYWQVPRKGVKASEVFQSFLQSQAFIESSILQADTALTAGEKAIAEERAQKVAAEKEQELLRQKQKEQQEYMEAQEKSHKENLEQLRRKLEQEREQDIKDHDMMLKKLMKDQKAFLEEGFKKKAEEMNKEIQQLRDVIKDKKRNTDRIKEALLNGFSTVLFHYLVRYLKHL | – | binds
4 | GBP5 (β-lactamase fragment fusion for PCA) (protein, UniProt Q8CFB4 1-590) MAPEIHMPEPLCLIGSTEGHLVTNQEALKILSAITQPVVVVAIVGLYRTGKSYLMNKLAGKEKGFSVGSTVQSHTKGIWMWCVPHPQKPDHTLVLLDTEGLGDVEKDDKKNDTQIFALAILLSSTFVYNTMNKIDQGAIDLLHNVTELTDLLRTRNSSDSNQTEGEGPADMSFFPDLVWTLRDFFLDLQANGHAITSDEYLENSLKLKQGSDERTQTFNLPRLCIQKFFPVKKCFVFDAPALGSKLSQLPTLSNEELNSDFVQDLSEFCSHIFTQSKTKTLPGGIQVNGPRLESLVLTYVDAINSGALPSIENTVVTLARRENSAAVQKAIGHYDQLMSEKVQLPTETLQELLDLHRTCEREAIEIFRKHSFKDEGEFFQKELESLLSAKQDEICKKNADASAALCSTLLGSIFKPLEQEVAQEFYHKPGGHKLFLQRMEQLKANYRQQPGKGTQAEEVLQTYLNAKETVSRTILQTDQVLTDKEIQSKAEQERAEAARLEAQRLEAIRIQEEQRKAEMERQHQEQLRQIALEKARVAQEQQWILKQRAQEEADRIKAEQEAQLRALQQQLQHMREMNHHRRHHHDCVIS | – | binds
